The results in this text go back to the supplement of paper PMC10338343.

± gives the standard deviation. This is a selection; strong and weak results do not stand in their true shares. Many entries were measured with a wide error.
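Also: 1 nM active piRISC with 0.1 nM target library at 33 °C single turnover.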

The assay has as its system MILI (PIWIL2) piRISC loaded with piRNA #2 (26 nt). Nature of the assay: pre-steady-state target cleavage rate (min^-1); MIWI and MILI are mouse PIWI proteins and EfPiwi is from a freshwater sponge; tags in brackets are library labels; higher = faster piRNA-guided slicing of the target. The settings on record: guide: piRNA #2 5'p-UUAGGUAACCCAGUAGAUCCAGAGGA; auxiliary factor: 500 nM mouse GTSF1. In outline: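 In this Cleave-'n-Seq assay, uncleaved targets were sequenced and normalised to depth and to weakly complementary targets. They came from a transcribed, DNA-blocked target RNA library […] mixed with 1 nM active affinity-purified piRISC carrying one synthetic guide, with or without 500 nM GTSF1 partner protein, in HEPES–potassium acetate buffer at 33 °C for 0–8 or 0–960 min. After three trials were pooled and k3 was capped at 0.0001 min^-1, the pre-steady-state cleavage rate was obtained from a burst-and-steady-state fit.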
For CUUAAGGAGAGGAUCUACAGGGUAACCUAA, the “pre-steady-state target cleavage rate” value stood at 0.00234 ± 0.0053. The same measure for CUUAAGGAGACCUUCUACUGUGUUACCUAA: 0.000158 ± 0.036. To CUUAACCUCUGGAUUACUGGGUUACCUAA belongs 0.0792 ± 0.024. The same measure for CUUAAGGAGAGGAACUACUCGGUUACCUAA: 0.000171 ± 0.033; for CUUAAGGAGACCUUCUACUGGGUAUCCUAA: 0.0003 ± 0.029; for CUUAAGGUCUGGAACUACUGGGUAACCUAA: 0.00543 ± 0.0077. For CUUAAGGAGUGGAUGUUCUGGGUUACCUAA, the “pre-steady-state target cleavage rate” value stood at 0.00414 ± 0.0085. For CUUAAGGAGAGGAUCUACAGGGAUACCUAA, the “pre-steady-state target cleavage rate” value came to 0.00102 ± 0.015. As for CUUAAGGAGACCUUCUACACCGUUACCUAA, the “pre-steady-state target cleavage rate” value came to 0.000849 ± 0.013.

As for CUUAAGGAGUGGAACUACUGGGUAACCUAA, the “pre-steady-state target cleavage rate” value is 0.00198 ± 0.011. The same measure for CUUAACAUCUGGAUCUACUGGGUUACCUAA: 0.114 ± 0.019; for CUUAAGGUCUGGAUGUACUGGGUAACCUAA: 0.00502 ± 0.0077; for CUUAUCCUCUGGAUCUACUGGGUUAUCCUAA: 0.204 ± 0.046. With CUUAAGGACUGGAUCUACUGGGUUAACUAA, the “pre-steady-state target cleavage rate” value amounted to 0.003 ± 0.0095. Turning to CUUAAGGAGACGAUGUACUGGGUUACCUUA, the “pre-steady-state target cleavage rate” value is 0.000708 ± 0.014.

On to “CUUAAGGAGACCAUCUACUGGGUUACCUAA [g2:g18:cont:t1A]”, for which the “pre-steady-state target cleavage rate” value was found to be 0.00162 ± 0.0041. The same measure for CUUAAGGAGACCUACUACUGGGAUACCUAA: 0.000162 ± 0.021; for CUUAAGGAGACCAUCUACUGGGAUACCAAA: 0.000109 ± 0.032. Consider CUUAAGGAGAGGAUCUACUGCGUUACCAAA, for which the “pre-steady-state target cleavage rate” value came out at 0.000348 ± 0.037. To CUUAAGCUCUGGAUCUACUGGCUUACGUAA belongs 0.000231 ± 0.021; to CUUAAGGAGACGAUCUUACUGGGUUACCUAA, 0.000618 ± 0.0079; to CUUAACCUCUGGAUCAACUCGGUUACCUAA, 0.00107 ± 0.0098.

On to CUUAUCCUCUGCAUCUACUGGGAUACCUAA, for which the “pre-steady-state target cleavage rate” value is 0.0522 ± 0.025. To CUUAAGGAGUGGAUCUACUGGGUUCCUAA belongs 0.000546 ± 0.017; to CUUAAGGAGUGGAUCUACUGGGUACCUAA, 0.000578 ± 0.017; to CUUAUCCUCUGGAUCUACUGUGGUUACCUAA, 0.00184 ± 0.0049.

For the sequence CUUAAGGAGUGGAUCUACUGGGUAACCUUA, the “pre-steady-state target cleavage rate” value amounted to 0.00357 ± 0.0049. Take CUUAAGGAGACCUUCUACGGGUUACCUAA: the “pre-steady-state target cleavage rate” value came out at 0.000614 ± 0.014. The same measure for CUUAACGUCUGGAUCUACUCGGUUACCUAA: 0.00178 ± 0.0086; for CUUAAGGAGACCAUCUACUGCCUUACCUAA: 0.000239 ± 0.013; for CUUAAGGAGUGGAUCUACUCGGGUUACCUAA: 0.000198 ± 0.046. Regarding CUUAAGGAGUCGAUCUACUGGGUUACCAAA, the “pre-steady-state target cleavage rate” value is 0.000928 ± 0.015. Regarding CUUAAGCUCUGGAUCUACUGGGUUAGCUAA, the “pre-steady-state target cleavage rate” value was 0.094 ± 0.018. To CUUAACCUCUGGAUCUACAGGCUUACCUAA belongs 0.00195 ± 0.0056; to CUUAAGGAGUGGAUCUACUGGGAUUCCUAA, 0.00134 ± 0.0052. With CUUAAGGAGACCAUCUGCUGGGUUACCUAA, the “pre-steady-state target cleavage rate” value was 0.00101 ± 0.016.

With CUUAAGGACUGGUUGUACUGGGUUACCUAA, the “pre-steady-state target cleavage rate” value came out at 0.00801 ± 0.01. Regarding CUUAAGGACUGGAUCUACUGGGUUAUCCUAA, the “pre-steady-state target cleavage rate” value was found to be 0.0104 ± 0.012. The same measure for CUUAAGGAGUGGUACUACUGGGUUACCUAA: 0.00115 ± 0.01. Regarding CUUAAGGAGACCUACCUACUGGGUUACCUAA, the “pre-steady-state target cleavage rate” value came to 0.000305 ± 0.027.

For CUUAAGGUCUGGAUCUACUGCGGUUACCUAA, the “pre-steady-state target cleavage rate” value came out at 0.000824 ± 0.0095. Consider CUUAAGGAGACCAUCAACUGGGUUACCAAA, for which the “pre-steady-state target cleavage rate” value turned out to be 0.000238 ± 0.036. The same measure for CUUAAGGACUGGAUCUACUGGGUUAGCUAA: 0.00637 ± 0.0065. The same measure for CUUAAGGAGUGGAUCUUACUGGGUUACCUAA: 0.000503 ± 0.012; for CUUAAGGAGACGAUCUACUGGGCUUACCUAA: 0.00011 ± 0.062. To CUUAAGGUGUCGAUCUACUGGGUUACCUAA belongs 0.0031 ± 0.0034; to CUUAAGGAGAGGAUCUACUGGAGUUACCUAA, 0.00101 ± 0.012. Turning to CUUAAGGAGACGUUCUACUGGGUUACCUUA, the “pre-steady-state target cleavage rate” value was 0.000497 ± 0.013. Regarding “CUUAAGGAGACCUAGUACUGGGUUACCUAG [g2:g15:cont:t1G]”, the “pre-steady-state target cleavage rate” value was 0.000552 ± 0.016.

With CUUAAGGAGAGGAUCUUCUGGGUAACCUAA, the “pre-steady-state target cleavage rate” value was determined as 0.00081 ± 0.011. As for CUUAAGGAGACCUUCUACUGGCUUAGCUAA, the “pre-steady-state target cleavage rate” value amounted to 0.00213 ± 0.006. On to CUUAAGGAGACGUUCUACUGGGUUACCUAA, for which the “pre-steady-state target cleavage rate” value was 0.0015 ± 0.0046. For the sequence “CUUAUCCUCUGGAUCUUGACCCAAUGGAUA [g15:g26:cont:t1A]”, the “pre-steady-state target cleavage rate” value was determined as 0.000479 ± 0.015.

Regarding CUUAAGGAGACCUAGAUCUGGGUCUACCUAA, the “pre-steady-state target cleavage rate” value is 0.000496 ± 0.019. To CUUAAGGACUGGUUCUACUGGGUUUCCUAA belongs 0.00183 ± 0.013; to CUUAAGCUCUGGAUCUACUGGCUUACCUUA, 0.000513 ± 0.015. For CUUAAGGACGUGGAUCUACUGGGUUACCUAA, the “pre-steady-state target cleavage rate” value came to 0.0179 ± 0.02. On to CUUAAGGAGACCUUCUACUGGAGUUACCUAA, for which the “pre-steady-state target cleavage rate” value is 0.00084 ± 0.0088.

On to CUUAAGGAGACCAUCUACUGGGUUAGCUAA, for which the “pre-steady-state target cleavage rate” value is 0.000777 ± 0.0084. As to CUUAAGGAGACCAUCUACUAGGGUUACCUAA, the “pre-steady-state target cleavage rate” value was 0.0014 ± 0.0065. To CUUAAGCUCUGGAUCAACUGGCUUACCUAA belongs 0.000417 ± 0.02.

CUUAAGGACUGCAUCUACUGGGUUACGUAA: the “pre-steady-state target cleavage rate” value came to 0.00269 ± 0.0097. To CUUAAGGACUGUAUCUACUGGGUUACCUAA belongs 0.002 ± 0.016; to CUUAAGGAGACCUAGUUACUGGGUUACCUAA, 0.000109 ± 0.042; to CUUAAGGAGACGUUCUAGUGGGUUACCUAA, 0.000892 ± 0.009. To CUUAAGGAGACCUUCUACUGGGUUACCAUA belongs 0.000608 ± 0.011; to CUUAAGGAGACCUACUACGUGGGUUACCUAA, 0.000355 ± 0.026; to CUUAAGGAGACGAUCUACUCGGUUACCUUA, 0.000649 ± 0.013. For the sequence CUUAUCCUCUGGAUGUACUGGGUUACCUAA, the “pre-steady-state target cleavage rate” value came out at 0.108 ± 0.022.

Take CUUAAGCUCUGGAUCUACUGCGGUUACCUAA: the “pre-steady-state target cleavage rate” value came to 0.000139 ± 0.03. As for CUUAAGGAGACCUAGAUGUGGGUUAACCUAA, the “pre-steady-state target cleavage rate” value was 0.000229 ± 0.026.

As to CUUAAGGAGACCUACUUACUGGGUUACCUAA, the “pre-steady-state target cleavage rate” value was found to be 0.000347 ± 0.018.
